Data: PubChem BioAssay AID504834 (National Center for Advancing Translational Sciences (NCATS), 2011)
The whole screen tested about 320,000 compounds, of which about 22,000 (6.9%) were called active. Inconclusive means that the source gave no clear call. Such entries were picked first, then a sample of the others. The call rests on the fitted dose curve; in most records, active means well fitted inhibition curve with a large enough effect; inconclusive means small, poorly fitted or top-dose-only effect, or another doubt; inactive means no such curve, though single readings can be large or run the other way. Potencies beside an inconclusive call are fits to weak or partial responses and may not hold up.

Test: Primary qHTS for delayed death inhibitors of the malarial parasite plastid, 96 hour incubation
Settings: P. falciparum luciferase reporter growth; series mostly up to 28.7 µM; activity change, negative = inhibition: at the top concentration
Summary of the method: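 Infected RBCs, 2% Hct / 0.05% parasitemia final; luciferase-reporter P. falciparum; cpd 96 h, 37 C, 5% CO2; luciferase detection reagent; luminescence.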
On the % scale 0 is the no-effect control and ±100 the full control effect; potency means the concentration at half of the fitted maximal effect.

Row | Compound | Potency | activity change, negative = inhibition
1 | COC(=O)c1nc2n(n1)C(c1ccc(OC)c(OC)c1)C(C(=O)OC1CCCCC1)=C(C)N2 (stereo not drawn) | inconclusive: 18.5 µM [inhibitor, single point] | 
2 | CC(=O)N1c2c(cc(Br)cc2S(=O)(=O)NCc2ccccc2)CC1C (stereo not drawn) | inconclusive: 16.5 µM [inhibitor, single point] | 
3 | COc1cc(CCC(=O)OCc2ccccc2C#N)cc(OC)c1OC |  | inactive: 31.2%
4 | Cc1cc(C)cc(Oc2coc3cc(O)ccc3c2=O)c1 | inconclusive: 13.1 µM [inhibitor, single point] | 
5 | CCc1ccccc1N1CN(Cc2cccnc2)CNC1=S | inconclusive: 2.08 µM [inhibitor, partial curve, poor fit] | 
6 | Cc1c(CCC(=O)NCCCn2ccnc2)c(=O)oc2cc3occ(C(C)(C)C)c3cc12 | inconclusive: 4.15 µM [inhibitor, partial curve] | 
7 | O=C1C=C(c2cccc(Cl)c2O)C[C@@H](c2ccc3c(c2)OCO3)C1 | inconclusive: 11.7 µM [inhibitor, partial curve, poor fit] | 
8 | COc1ccc(C(=O)Nc2ccc(NC(=O)c3ccccc3)cc2)cc1S(=O)(=O)N1CCOCC1 |  | inactive: 31.7%
9 | CC(=O)NC(CCS(C)(=O)=O)C(=O)Nc1cccc2ccccc12 (stereo not drawn) |  | inactive: 4.9%
10 | COC(=O)c1sc2nc(C)c([N+](=O)[O-])c(C)c2c1N | inconclusive: 11.7 µM [inhibitor, single point] | 
11 | N#Cc1ccccc1OCC(=O)N(Cc1nnc(-c2ccccc2Cl)o1)C1CC1 | inconclusive: 10.4 µM [inhibitor, single point] | 
12 | CSc1cccc(CNC(=O)CC2C(=O)NCCN2CC(C)(C)C)c1 (stereo not drawn) |  | inactive: 6.26%
13 | COc1ccc2[nH]c3c(=O)n(CCCC(=O)NC4CCCCC4C)c(=S)[nH]c3c2c1 (stereo not drawn) |  | inactive: -22.8%
14 | CCn1c(=O)n(CC)c2cc(N3CCCC3)c(NC(=O)c3cccc(Cl)c3)cc21 | active: 11.7 µM | 
15 | COc1ccc(/C=C/C(=O)Nc2ccc(S(=O)(=O)N3CCOCC3)cc2)c(OC)c1 | active: 9.28 µM | 
16 | Cc1cccc(NC(=O)c2cc(Cl)nc3ccccc23)c1 | inconclusive: 9.28 µM [inhibitor, single point] | 
17 | CCOc1ccccc1NC(=O)CSc1nc(=O)n(Cc2ccncc2)c2c1CCC2 | inconclusive: 18.5 µM [inhibitor, single point] | 
18 | CC1(C)CC(=O)C(C=NCC2CCN(C(=S)Nc3ccccc3)CC2)=C(O)C1 | inconclusive: 18.5 µM [inhibitor, partial curve, poor fit] | 
19 | O=C(O)c1cc(-c2ccco2)nc2ccccc12 |  | inactive: 0.428%
20 | CCOC(=O)c1c(-c2ccccc2Cl)csc1NC(=O)c1cc(S(=O)(=O)N2CCOCC2)ccc1C | inconclusive: 3.29 µM [inhibitor, full curve, poor fit] | 
21 | O=C(COC(=O)c1c[nH]c2ccccc12)Nc1ccc([N+](=O)[O-])cc1 | inconclusive: 13.1 µM [inhibitor, single point] | 
22 | Cc1cc(C)cc(N(CC(=O)NCc2ccc(F)cc2)C(=O)c2snc(C(N)=O)c2N)c1 | inconclusive: 14.7 µM [inhibitor, single point] | 

Row | Compound | Potency | activity change, negative = inhibition
23 | COc1cccc(C2=NOC(C(=O)Nc3ccc4c(c3)OCO4)C2)c1 (stereo not drawn) |  | inactive: 2.11%
24 | O=C(O)c1ccccc1CSc1nnnn1-c1ccccc1 |  | inactive: 25.4%
25 | COc1ccc2c(C)c(CCC(=O)NC3CC3)c(=O)oc2c1 | inconclusive: 13.1 µM [inhibitor, single point] | 
26 | CCOc1cc(N2CCOCC2)c(OCC)cc1NC(=O)CSc1nc(N)cc(=O)[nH]1 | inconclusive: 18.5 µM [inhibitor, single point] | 
27 | Cc1cccc(NC(=O)CSc2ccc(-c3ccco3)nn2)c1C | inconclusive: 13.1 µM [inhibitor, single point] | 
28 | CC1=C(C(=O)OCC2CCCO2)C(c2coc3ccc(C)cc3c2=O)C2=C(CCCC2=O)N1 (stereo not drawn) | inconclusive: 18.5 µM [inhibitor, partial curve, poor fit] | 
29 | COC([CH2][Hg])CNC(=O)c1ccccc1OCC(=O)O (stereo not drawn) | inconclusive: 4.78 µM [inhibitor, partial curve, poor fit] | 
30 | O=C(NCc1ccco1)C1CCCN1C(=O)Nc1ccc(Cl)cc1 (stereo not drawn) | inconclusive: 10.4 µM [inhibitor, single point] | 
31 | COc1ccc(N2CC(C(=O)N3CCN(c4ccccc4)CC3)CC2=O)cc1 (stereo not drawn) | inconclusive: 16.5 µM [inhibitor, single point] | 
32 | COn1c(C)c(C(C)=O)c2c3no[n+]([O-])c3ccc21 | inconclusive: 0.828 µM [inhibitor, partial curve, poor fit] | 
33 | COc1ccc(C(=O)NNC2=CC(=O)CC(C)(C)C2)cc1OC | inconclusive: 7.38 µM [inhibitor, partial curve, poor fit] | 
34 | COc1cc(C=O)ccc1OCCCOc1ccccc1C(=O)O |  | inactive: 128%
35 | Cc1cc(OCC(=O)N2CCCC2)ccc1Cl |  | inactive: -1.69%
36 | COc1ccc(-n2c(N)cc(=O)nc2SCC(=O)N2CCN(c3ccccc3)CC2)cc1 | inconclusive: 13.1 µM [inhibitor, single point] | 
37 | CCCOc1ccc(-c2nc(N3CCN(CC)CC3)c3ccccc3n2)cc1 | active: 11.7 µM | 
38 | COc1ccc(CNC(=O)c2cccc(S(=O)(=O)N3CCN(c4ccc(F)cc4)CC3)c2)cc1 | inconclusive: 10.4 µM [inhibitor, single point] | 
39 | CC(=O)c1cccc(N=C2NC(=O)CS2)c1 | inconclusive: 18.5 µM [inhibitor, single point] | 
40 | CC1CCN(CCCCOc2ccc(C(=O)c3ccccc3)cc2)CC1 | inconclusive: 18.5 µM [inhibitor, single point] | 
41 | O=C(C1CCC(CNc2nc(=S)[nH]c3ccccc23)CC1)N1CCN(c2ccc(F)cc2)CC1 (stereo not drawn) |  | inactive: -20.7%
42 | Cc1[nH]c2ccccc2c1C(=O)COC(=O)c1ccc([N+](=O)[O-])s1 | inconclusive: 11.7 µM [inhibitor, single point] | 
43 | COc1cc(/C=N/NC(=O)CCN2CCN(c3ccccc3)CC2)cc(OC)c1OC | inconclusive: 5.22 µM [inhibitor, partial curve] | 

Full records, quoted from the list:
COn1c(C)c(C(C)=O)c2c3no[n+]([O-])c3ccc21 in the list: Potency: inconclusive: 0.828 µM [inhibitor, partial curve, poor fit]
CCCOc1ccc(-c2nc(N3CCN(CC)CC3)c3ccccc3n2)cc1 in the list: Potency: active: 11.7 µM
O=C(C1CCC(CNc2nc(=S)[nH]c3ccccc23)CC1)N1CCN(c2ccc(F)cc2)CC1 (stereo not drawn) in the list: activity change, negative = inhibition: inactive: -20.7%
